# Values from PubChem BioAssay AID1259308 (NCATS, 2017).
# Aim: 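Genes whose loss raises luciferase production in HEK293 cells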 (primary screen)
# System: human HEK293 embryonic kidney cells stably expressing firefly luciferase (HEK-CMV-Luc2-Hygro)
# Knock-down reagent: single siRNA against human genes, 0.8 pmol siRNA per well
# Duration: 72 h
# Detection: 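Reporter luminescence and viable-cell signal on separate replicate plates, given as percent of non-targeting control and median/MAD z-scores, plus per-cell luciferase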
# Direction: total luciferase, z-score: higher = more reporter protein produced
# Rule for the call: 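An siRNA counts as active if its total luciferase robust z-score exceeds 3; genes with two or more such siRNAs out of three were retested with fresh siRNAs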
# Meaning of the calls: active = raised luciferase; inactive = no rise
# Shown is one part, drawn at random, of about 59,000 deposited reagents. About 1,510 of them (2.6%) count as active. 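Calls use total luciferase alone and ignore viability, so some active siRNAs may act by altering cell number.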 A number with no mark means an inactive call. Reagents against one gene are numbered here. Not all columns of the deposit are shown.
gene knocked down,siRNA no.,"total luciferase, z-score"
CPNE4 (copine 4),1,0.0708
CPNE4 (copine 4),2,-1.29
CPNE4 (copine 4),3,-0.0918
"FRG1JP (FSHD region gene 1 family member J, pseudogene)",1,1.06
"FRG1JP (FSHD region gene 1 family member J, pseudogene)",2,0.0914
"FRG1JP (FSHD region gene 1 family member J, pseudogene)",3,-2.68
ZKSCAN1 (zinc finger with KRAB and SCAN domains 1),1,3.23 (active)
ZKSCAN1 (zinc finger with KRAB and SCAN domains 1),2,1.67
ZKSCAN1 (zinc finger with KRAB and SCAN domains 1),3,-0.238
NASP (nuclear autoantigenic sperm protein),1,3.05 (active)
NASP (nuclear autoantigenic sperm protein),2,-1.63
NASP (nuclear autoantigenic sperm protein),3,1.39

Copied from the listing, 2 entries:
gene knocked down,siRNA no.,"total luciferase, z-score"
"FRG1JP (FSHD region gene 1 family member J, pseudogene)",3,-2.68
ZKSCAN1 (zinc finger with KRAB and SCAN domains 1),1,3.23 (active)

Next records follow.
gene knocked down,siRNA no.,"total luciferase, z-score"
HOPX (HOP homeobox),1,0.397
HOPX (HOP homeobox),2,-0.171
HOPX (HOP homeobox),3,-0.147
MBOAT1 (membrane bound glycerophospholipid O-acyltransferase 1),1,-1.83
MBOAT1 (membrane bound glycerophospholipid O-acyltransferase 1),2,-0.419
MBOAT1 (membrane bound glycerophospholipid O-acyltransferase 1),3,-0.367
TOPAZ1 (testis and ovary specific TOPAZ 1),1,-0.244
TOPAZ1 (testis and ovary specific TOPAZ 1),2,1.43
TOPAZ1 (testis and ovary specific TOPAZ 1),3,-1.16
SLC15A1,1,3.15 (active)
SLC15A1,2,1.76
SLC15A1,3,0.0925
